{"sequences": {"note": "Sequences of proteins named here, by UniProt entry; tags and fusion partners are left off. Residues count along the entry.", "UniProt P03952, 20-390 partner limits assumed": "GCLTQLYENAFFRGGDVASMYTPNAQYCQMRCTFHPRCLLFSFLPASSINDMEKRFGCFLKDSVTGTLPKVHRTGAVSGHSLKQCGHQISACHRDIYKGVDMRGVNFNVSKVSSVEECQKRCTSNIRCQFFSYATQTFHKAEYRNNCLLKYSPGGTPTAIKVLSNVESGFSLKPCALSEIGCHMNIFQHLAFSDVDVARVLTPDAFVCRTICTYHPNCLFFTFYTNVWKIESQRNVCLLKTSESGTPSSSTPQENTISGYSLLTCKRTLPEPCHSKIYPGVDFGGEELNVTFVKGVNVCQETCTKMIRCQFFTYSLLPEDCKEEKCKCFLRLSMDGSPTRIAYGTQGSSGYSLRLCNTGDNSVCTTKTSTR", "UniProt P03952, 391-638 limits assumed": "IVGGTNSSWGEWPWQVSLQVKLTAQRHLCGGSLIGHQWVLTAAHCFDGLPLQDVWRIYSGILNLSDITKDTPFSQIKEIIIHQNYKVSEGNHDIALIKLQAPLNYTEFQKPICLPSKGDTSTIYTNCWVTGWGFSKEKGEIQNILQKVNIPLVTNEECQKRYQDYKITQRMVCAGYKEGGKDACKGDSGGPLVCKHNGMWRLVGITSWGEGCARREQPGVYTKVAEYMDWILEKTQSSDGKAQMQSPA", "UniProt P00747, 97-580 partner limits assumed, species assumed": "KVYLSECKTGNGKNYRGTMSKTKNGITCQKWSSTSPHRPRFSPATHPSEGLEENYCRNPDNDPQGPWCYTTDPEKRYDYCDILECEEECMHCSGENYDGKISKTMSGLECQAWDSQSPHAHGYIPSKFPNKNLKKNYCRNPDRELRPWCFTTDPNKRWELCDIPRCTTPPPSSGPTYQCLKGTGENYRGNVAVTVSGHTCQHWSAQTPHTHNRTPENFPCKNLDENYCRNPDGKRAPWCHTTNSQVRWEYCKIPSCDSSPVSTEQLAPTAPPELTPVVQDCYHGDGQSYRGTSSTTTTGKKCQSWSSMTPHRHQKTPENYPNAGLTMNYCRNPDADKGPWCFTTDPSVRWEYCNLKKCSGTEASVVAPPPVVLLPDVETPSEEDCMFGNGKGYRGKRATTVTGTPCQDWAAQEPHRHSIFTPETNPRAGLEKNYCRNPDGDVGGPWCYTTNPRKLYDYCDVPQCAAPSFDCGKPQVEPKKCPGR", "UniProt P00747, 581-810 limits assumed, species assumed": "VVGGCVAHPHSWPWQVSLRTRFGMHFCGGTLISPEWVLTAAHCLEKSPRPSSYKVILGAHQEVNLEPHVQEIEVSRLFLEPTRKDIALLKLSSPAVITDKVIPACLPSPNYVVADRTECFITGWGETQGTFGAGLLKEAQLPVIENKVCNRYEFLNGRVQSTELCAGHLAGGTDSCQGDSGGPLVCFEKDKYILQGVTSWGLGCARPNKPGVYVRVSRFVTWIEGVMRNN", "UniProt P00742, 41-179 partner limits assumed": "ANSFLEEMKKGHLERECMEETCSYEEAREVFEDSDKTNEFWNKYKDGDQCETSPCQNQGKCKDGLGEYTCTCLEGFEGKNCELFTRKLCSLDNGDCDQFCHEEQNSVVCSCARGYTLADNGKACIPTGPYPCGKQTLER", "UniProt P00742, 235-488 limits assumed": "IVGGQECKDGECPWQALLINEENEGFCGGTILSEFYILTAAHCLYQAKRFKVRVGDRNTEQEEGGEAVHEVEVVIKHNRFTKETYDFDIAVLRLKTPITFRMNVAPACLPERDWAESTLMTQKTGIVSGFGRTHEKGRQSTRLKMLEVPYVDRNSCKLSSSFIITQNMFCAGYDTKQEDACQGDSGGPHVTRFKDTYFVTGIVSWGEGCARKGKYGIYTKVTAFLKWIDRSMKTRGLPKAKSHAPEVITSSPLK"}, "source": "patent US4318904A", "about": "“Peptide affinity labels for thrombin and other trypsin-like proteases” (Research Corporation, priority 1980, dated 1982)", "assay_type_in_all_cases": "biochemical", "key": {"[1]": {"system": "plasminogen activator from a melanoma cell line", "experiment": "Inactivation of plasminogen activator from a melanoma cell line"}, "human plasma [2]": {"system": "human plasma", "experiment": "Prothrombin time of citrated human plasma", "details": "control 13.2 ± 0.2"}, "[3]": {"system": "uterine plasminogen activator", "experiment": "Inactivation of uterine plasminogen activator"}, "plasma kallikrein": {"molecular_target": "T1, plasma kallikrein (Homo sapiens, UniProt P03952)", "T1 construct": "other plasma trypsin-like proteases such as plasmin, factor Xa and kallikrein", "experiment": "Selectivity: inactivation of plasma kallikrein, residual esterase activity", "details": "plasma kallikrein initial 2.5 nM; FIG. 2"}, "plasmin": {"molecular_target": "T2, plasmin (Homo sapiens, UniProt P00747)", "T2 construct": "other plasma trypsin-like proteases such as plasmin, factor Xa and kallikrein", "experiment": "Selectivity: inactivation of plasmin, residual esterase activity", "details": "plasmin initial 1.8 nM; FIG. 2"}, "factor Xa": {"molecular_target": "T3, factor Xa (Homo sapiens, UniProt P00742)", "T3 construct": "factor Xa, which is in turn derived from a precursor, factor X", "experiment": "Selectivity: inactivation of factor Xa, residual esterase activity", "details": "factor Xa initial 14 nM; FIG. 2"}, "human plasma [4]": {"system": "human plasma", "experiment": "Partial thromboplastin time of citrated human plasma", "details": "control 47.8 ± 0.3"}}, "note": "Not every detail of the peptide structures is certain; ends, links or a residue may be inferred."}
{"compound": "N=C(N)NCCC[C@H](NC(=O)[C@@H]1CCCN1C(=O)[C@H](N)Cc1ccccc1)C(=O)CCl", "note": "[D-Phe-Pro-ArgCH2 Cl, D-Phe-Pro-Arg-CH2 Cl.2HCl]", "values": [{"measurement": "inactivation of plasminogen activator from a melanoma cell line", "setting": "[1]", "result": "inactivates"}, {"measurement": "Clotting Times (prothrombin time)", "setting": "human plasma [2]; affinity label 1.0 × 10^-7 M", "result": "15.6 ± 0.3", "unit": "s"}, {"measurement": "Clotting Times (prothrombin time)", "setting": "human plasma [2]; affinity label 1.0 × 10^-8 M", "result": "14.1 ± 0.1", "unit": "s"}, {"measurement": "Clotting Times (prothrombin time)", "setting": "human plasma [2]; affinity label 5.0 × 10^-7 M", "result": "24.3 ± 0.3", "unit": "s"}, {"measurement": "Clotting Times (prothrombin time)", "setting": "human plasma [2]; affinity label 5.0 × 10^-8 M", "result": "15.1 ± 0.05", "unit": "s"}, {"measurement": "inactivation of uterine plasminogen activator", "setting": "[3]", "result": "inactivates"}, {"measurement": "inactivated times less than thrombin", "setting": "plasma kallikrein", "result": "≥ 1,000 times"}, {"measurement": "inactivated times less than thrombin", "setting": "plasmin", "result": "≥ 1,000 times"}, {"measurement": "inactivated times less than thrombin", "setting": "factor Xa", "result": "≥ 1,000 times"}, {"measurement": "Clotting Times (partial thromboplastin time)", "setting": "human plasma [4]; affinity label 1.0 × 10^-7 M", "result": "81.6 ± 1.2", "unit": "s"}, {"measurement": "Clotting Times (partial thromboplastin time)", "setting": "human plasma [4]; affinity label 1.0 × 10^-8 M", "result": "54.8 ± 1.1", "unit": "s"}, {"measurement": "Clotting Times (partial thromboplastin time)", "setting": "human plasma [4]; affinity label 5.0 × 10^-7 M", "result": "149.2 ± 0.9", "unit": "s"}, {"measurement": "Clotting Times (partial thromboplastin time)", "setting": "human plasma [4]; affinity label 5.0 × 10^-8 M", "result": "69.8 ± 3.2", "unit": "s"}, {"measurement": "Clotting Times (partial thromboplastin time)", "setting": "human plasma [4]; affinity label 5.0 × 10^-9 M", "result": "53.0 ± 1.4", "unit": "s"}, {"measurement": "Clotting Times (partial thromboplastin time)", "setting": "human plasma [4]; affinity label 7.5 × 10^-7 M", "result": "180.7 ± 4.9", "unit": "s"}]}
